Measured values as given in PubChem BioAssay AID651640 (Broad Institute, 2012).
Several values for one entry are separate records, joined by “and”; a condition that tells them apart may be missing. Equal entries are not always repeated. Among all 350,000 compounds or so, about 6,000 (1.7%) were called active. Inconclusive means that the source gave no clear call. Such entries were picked first, then a sample of the others. Cut-off read from the data, not from the text of the source: active = CPE inhibition above about 20% (passing the limit was not always enough); inconclusive = no clear call, values can overlap the other calls; tested in BHK-21 cells.

assay: protection of cells from dengue 2 killing – plate reader, single concentration, primary screen (AID 651640); details: DENV2-infected cells, cytopathic effect rescue, at 9.99 µM, stronger effect = higher value;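 note: 0% = median of neutral control wells and 100% = median of positive control wells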

Row | SMILES | CPE inhibition
1 | CN(CC(=O)Nc1ccc(F)cc1)CC(=O)N1CCc2ccccc21 | inconclusive: 23.3%
2 | CN(CC(=O)Nc1cccc(F)c1)C(=O)c1ccccc1OCC(=O)Nc1cccc(C(F)(F)F)c1 | inconclusive: 21.9%
3 | O=C(CN1C(=O)NC2(CCCCC2)C1=O)N1CCN(S(=O)(=O)c2cccc([N+](=O)[O-])c2)CC1 | inconclusive: 56.8%
4 | CCCn1c(SCC(=O)Nc2ccc3c(c2)CCC3)n[nH]c1=O | inconclusive: 21.6%
5 | CN1C[C@H]2[C@@H](c3ccccc31)[C@@H](CO)N2C(=O)Nc1ccccc1 | active: 58.5%
6 | Cc1ccc(S(=O)(=O)N2C[C@H](O)COC[C@H]3O[C@@H](CC(=O)N4CCc5ccccc5C4)CC[C@@H]32)cc1 | inconclusive: 22.8%
7 | COc1ccc(C(=O)N(c2ccccc2)c2nccc3ccccc23)cc1OC | inconclusive: 30.4%
8 | Cc1noc(C)c1NC(=O)Nc1cccc2c1O[C@@H](CN(C)Cc1ccc(-c3ccccc3)cc1)[C@@H](C)CN([C@@H](C)CO)C2=O | inconclusive: 23.7%
9 | Cc1ccc(CN(C)c2ccc(S(=O)(=O)N3CCCC3)cn2)cc1 | active: 24.7%
10 | C[C@@H]1CN([C@H](C)CO)C(=O)Cc2cc(NC(=O)Cn3cnnn3)ccc2O[C@@H]1CN(C)Cc1ccc(C(=O)Nc2ccccc2N)cc1 | active: 112%
11 | Cc1ccc2c(c1)c1c3n2CCN(C(=O)C2CC2)C3CCC1 (stereo not drawn) | active: 54.4%
12 | COc1cc([C@@H]2CC=C(C(=O)O)[C@H](c3ccccc3)N2S(=O)(=O)c2ccc(C)cc2)cc(OC)c1OC | inconclusive: 23.5%
13 | CO[C@H]1CN(C)C(=O)c2ccc(NC(=O)C3CCOCC3)cc2OC[C@H](C)N(Cc2cccnc2)C[C@H]1C | inactive: 3.94%
14 | O=C(NCc1cc(C(F)(F)F)cc(C(F)(F)F)c1)C1CC(c2cccc(F)c2)=NO1 (stereo not drawn) | active: 23.7%
15 | C=CCn1c(C)cc(C(=O)Cn2ncc(Cl)c(Cl)c2=O)c1C | inconclusive: 37.1%
16 | COc1cccc(/C=C/C(=O)NNC(=O)c2cc(C)oc2C)c1 | inconclusive: 44.4%
17 | COc1ccccc1C#Cc1ccc([C@@H]2[C@@H](C#N)N(C(=O)C3CCC3)[C@H]2CO)cc1 | active: 21.5%
18 | O=C(CC1CC1)Nc1ccc2c(c1)[C@@H]1C[C@H](CC(=O)N3CCCCC3)O[C@H](CO)[C@@H]1O2 | inactive: -1.32%
19 | CC1CC(C)CN(C(=O)c2ccc(C(=O)c3ccccc3)cc2)C1 (stereo not drawn) | inconclusive: 35.1%
20 | Cc1c(Cl)cccc1NC(=O)CC1Oc2ccccc2NC1=O (stereo not drawn) | active: 34.6%
21 | Cc1ccc(-c2ccc(C3[C@H]4CNC[C@@H]3N4C(=O)Nc3ccccc3Cl)cc2)cc1 (stereo partly drawn) | inconclusive: 42.7%
22 | CNC[C@H]1Oc2c(NC(=O)Nc3cccc4ccccc34)cccc2C(=O)N([C@@H](C)CO)C[C@H]1C | inconclusive: 53.6%
23 | CN(C)CC(=O)N1C[C@@H]2N[C@H](C1)C2c1ccc(/C=C/c2ccccc2)cc1 (stereo partly drawn) | inactive: 6.87% and inactive: 17.2%
24 | C[C@H](CO)N1C[C@H](C)[C@@H](CN(C)C(=O)Cc2cccnc2)Oc2ncc(C#Cc3ccccc3F)cc2C1=O | inconclusive: 26.6%
25 | COCC(=O)N1CC(=O)N2[C@H](CO)[C@H](c3ccc(C#CC4CCCC4)cc3)[C@H]2C1 | inconclusive: 32.1%

Among those listed so far, 13 contain a carbonyl joined to an NH by a bond outside any ring.
Row | SMILES | CPE inhibition
1 | CN(CC(=O)Nc1ccc(F)cc1)CC(=O)N1CCc2ccccc21 | inconclusive: 23.3%
2 | CN(CC(=O)Nc1cccc(F)c1)C(=O)c1ccccc1OCC(=O)Nc1cccc(C(F)(F)F)c1 | inconclusive: 21.9%
4 | CCCn1c(SCC(=O)Nc2ccc3c(c2)CCC3)n[nH]c1=O | inconclusive: 21.6%
5 | CN1C[C@H]2[C@@H](c3ccccc31)[C@@H](CO)N2C(=O)Nc1ccccc1 | active: 58.5%
8 | Cc1noc(C)c1NC(=O)Nc1cccc2c1O[C@@H](CN(C)Cc1ccc(-c3ccccc3)cc1)[C@@H](C)CN([C@@H](C)CO)C2=O | inconclusive: 23.7%
10 | C[C@@H]1CN([C@H](C)CO)C(=O)Cc2cc(NC(=O)Cn3cnnn3)ccc2O[C@@H]1CN(C)Cc1ccc(C(=O)Nc2ccccc2N)cc1 | active: 112%
13 | CO[C@H]1CN(C)C(=O)c2ccc(NC(=O)C3CCOCC3)cc2OC[C@H](C)N(Cc2cccnc2)C[C@H]1C | inactive: 3.94%
14 | O=C(NCc1cc(C(F)(F)F)cc(C(F)(F)F)c1)C1CC(c2cccc(F)c2)=NO1 (stereo not drawn) | active: 23.7%
16 | COc1cccc(/C=C/C(=O)NNC(=O)c2cc(C)oc2C)c1 | inconclusive: 44.4%
18 | O=C(CC1CC1)Nc1ccc2c(c1)[C@@H]1C[C@H](CC(=O)N3CCCCC3)O[C@H](CO)[C@@H]1O2 | inactive: -1.32%
20 | Cc1c(Cl)cccc1NC(=O)CC1Oc2ccccc2NC1=O (stereo not drawn) | active: 34.6%
21 | Cc1ccc(-c2ccc(C3[C@H]4CNC[C@@H]3N4C(=O)Nc3ccccc3Cl)cc2)cc1 (stereo partly drawn) | inconclusive: 42.7%
22 | CNC[C@H]1Oc2c(NC(=O)Nc3cccc4ccccc34)cccc2C(=O)N([C@@H](C)CO)C[C@H]1C | inconclusive: 53.6%

Three structures out of the list, ordered by molar mass, largest number first.
Row | SMILES | CPE inhibition
12 | COc1cc([C@@H]2CC=C(C(=O)O)[C@H](c3ccccc3)N2S(=O)(=O)c2ccc(C)cc2)cc(OC)c1OC | inconclusive: 23.5%
9 | Cc1ccc(CN(C)c2ccc(S(=O)(=O)N3CCCC3)cn2)cc1 | active: 24.7%
19 | CC1CC(C)CN(C(=O)c2ccc(C(=O)c3ccccc3)cc2)C1 (stereo not drawn) | inconclusive: 35.1%

Continuation.

Row | SMILES | CPE inhibition
26 | O=C(CCC(=O)N1CCN(c2ccc(F)cc2)CC1)c1ccc(F)cc1 | inactive: -7.04%
27 | CC(C)CC#Cc1ccc([C@@H]2[C@@H](CO)N3C(=O)CN(S(=O)(=O)c4ccccc4)C[C@@H]23)cc1 | inactive: 3%
28 | CCCN(CC(=O)Nc1ccccc1C)C(=O)c1ccc(N2CCCC(C)C2)c([N+](=O)[O-])c1 (stereo not drawn) | inconclusive: 36.5%
29 | COc1cc(OC)c(-c2nc(-c3ccncc3)no2)cc1OC | inconclusive: 24.9%
30 | Cc1ccc2[nH]c(C(=O)N/N=C/c3ccccc3C(=O)O)c(-c3ccccc3)c2c1 | inconclusive: 20.4%
31 | CN(C)S(=O)(=O)N(CC(=O)NCCSCc1ccccc1)c1ccccc1 | inconclusive: 52.5%
32 | COc1cc(/C=C/C(=O)OCC(=O)Nc2ccc3c(c2)OCO3)ccc1O | inactive: 13.8%
33 | CC(C)NC(=O)Nc1ccc2c(c1)C(=O)N([C@@H](C)CO)C[C@@H](C)[C@H](CN(C)Cc1ccc3c(c1)OCO3)OCCCC[C@@H](C)O2 | inconclusive: 67.7%
34 | Cc1cc(Cl)ccc1Nc1ncccc1C(N)=O | inactive: -11.3%
35 | O=C(Nc1ccccc1F)c1ccc2sc([C@H]3C[C@H](O)[C@@H](CO)O3)nc2c1 | inconclusive: 37%
36 | O=C(CC(F)(F)F)N1C[C@@H]2[C@H](c3ccccc31)[C@H](CO)N2C(=O)Cc1cccnc1 | inactive: -7.84%
37 | Cn1cnc2c1c(=O)n(Cc1ccc(Cl)cc1Cl)c(=O)n2C | inconclusive: 39.7%
38 | CCc1nc2ccc(C(=O)NCCCn3ccnc3)cn2c1N(C)Cc1ccc(Cl)cc1 | inconclusive: 70.1%
39 | CC(C)C[C@H](NC(=O)N1CCn2c1nc1ccccc12)C(=O)N[C@@H](C(=O)O)c1ccccc1 | inconclusive: 24.7%
40 | CC(C)C[C@H]1CN(CCCC[C@H]2CNC(=O)C(=O)N2CCc2ccccc2)C(=O)C(=O)N1CCc1ccccc1 | inconclusive: 23.9%
41 | O=C(NCc1ccncn1)[C@@H]1[C@@H](CO)[C@@H]2Cn3c(ccc(-c4cccc(F)c4)c3=O)[C@@H]2N1CC1CC1 | inactive: 5.1%
42 | CCCCn1c(-c2ccccc2C)nc2cc3[nH]c(=O)c(C(C)C)nc3cc21 | inconclusive: 60.2%
43 | O=C([C@H]1[C@H](CO)[C@H]2Cn3c(cccc3=O)[C@@H]1N2CC1CCCCC1)N1CCOCC1 | active: 62.9%
44 | CC(C)N1CCN(c2ccc(OCC3COC(Cn4cncn4)(c4ccc(Cl)cc4Cl)O3)cc2)CC1 (stereo not drawn) | inactive: -12.9%
45 | O=C(C[C@@H]1CC[C@@H]2[C@H](COC[C@H](O)CN2C(=O)c2cccnc2)O1)NCc1ccccc1 | inconclusive: 40.1%
46 | O=C(Nc1ccc(F)cc1)N1C[C@@H]2[C@H](c3ccccc31)[C@H](CO)N2C(=O)Cc1ccncc1 | inconclusive: 20.9%
47 | Cn1cc([N+](=O)[O-])c(C(=O)NC2CCCC2)n1 | inconclusive: 23.4%
48 | COc1ccc(NC(=O)Nc2ccc3c(c2)CC(=O)N([C@@H](C)CO)C[C@@H](C)[C@H](CN(C)Cc2ccncc2)O3)cc1 | inconclusive: 20.4%
49 | Cc1ccccc1OCc1nnc(SCc2cc(=O)[nH]c3ccccc23)n1-c1ccccc1 | inconclusive: 42.3%
50 | S=C(Nc1ccc(Cl)c(Cl)c1)N1CCCC1 | inactive: -3.53%

Row | SMILES | CPE inhibition
51 | CC(C)(C)c1ccc(C(=O)N2CCOC23CCCCC3)cc1 | inconclusive: 22.2%
52 | O=c1nccc(N/N=C/c2ccccc2O)[nH]1 | inactive: -3.64%
53 | CC=Cc1ccc2n(c1=O)C[C@@H]1[C@@H](CO)[C@H](C(=O)NCc3ccccc3)[C@H]2N1S(C)(=O)=O (mixture of isomers) | inconclusive: 34.4%
54 | CC(C)(C)n1nc2c(c1NC(=O)COc1ccc3ccccc3c1)CS(=O)C2 (stereo not drawn) | inconclusive: 48.6%
55 | COc1ccccc1NC(=O)C(C)OC(=O)/C=C/c1ccc2ccccc2n1 (stereo not drawn) | inconclusive: 22.4%
56 | COc1ccc(C(C)=O)c(Oc2cc(NN3CCCCC3)c([N+](=O)[O-])cc2[N+](=O)[O-])c1 | inconclusive: 26.8%
57 | Cc1ccc(C(C(=O)NCc2ccc(F)cc2)N(C(=O)c2csnn2)C2CC2)cc1 (stereo not drawn) | inconclusive: 35%
58 | COc1ccc(S(=O)(=O)Nc2ccc3c(c2)C(=O)N([C@H](C)CO)C[C@H](C)[C@H](CN(C)Cc2ccc(Cl)c(Cl)c2)OCCCC[C@@H](C)O3)cc1 | active: 41.5%
59 | CCCCOc1cccc(C(=O)N(Cc2ccccc2)C2CCS(=O)(=O)C2)c1 (stereo not drawn) | inconclusive: 20.8%
60 | C/C=C/c1ccc([C@@H]2[C@@H](CO)N(C(C)=O)[C@@H]2CNC(=O)CC2CC2)cc1 | active: 85.6%
61 | O=S(=O)(N[C@H]1CC[C@H](CCn2cc(C3CC3)nn2)O[C@H]1CO)c1ccc(F)cc1 | inactive: -7.3%
62 | CC(=O)c1ccc(S(=O)(=O)NCCc2cn3ccc(C)cc3n2)cc1 | inconclusive: 27%
63 | O=C(/C=C/c1ccccc1)N1CCC(c2ccccc2)C1 (stereo not drawn) | inactive: 12.1%
64 | COc1ccc(NC(=O)N(C)C[C@H]2OCCCC[C@H](C)Oc3ccc(NC(=O)Cc4ccccc4)cc3C(=O)N([C@H](C)CO)C[C@@H]2C)cc1 | inactive: -4.04%
65 | CC(C)NC(=O)N(C)C[C@H]1OCCCC[C@@H](C)Oc2ccc(NC(=O)c3ccncc3)cc2C(=O)N([C@@H](C)CO)C[C@H]1C | inactive: 14%
66 | C=CCNC(=O)c1onc(CSc2cc(C)cc(C)c2)c1C(=O)O | inconclusive: 82.8%
67 | CCc1nnc(NC(=O)c2nc(S(=O)(=O)Cc3ccc(C)cc3)ncc2Cl)s1 | inconclusive: 44.5%
68 | COc1ccc(-c2cc(CCCC(=O)NCc3ccccn3)no2)cc1 | inconclusive: 22%
69 | Cc1ccc(NC(=O)c2ccc3nccnc3c2)c(C)c1 | inconclusive: 22.3%
70 | O=C1CN(C(=O)NCC(=O)N[C@@H](Cc2ccccc2)C(=O)O)c2ccccc2N1 | inconclusive: 58.7%
71 | CCOC(=O)C1CCCN(C(=O)c2ccccc2OC(F)(F)F)CC1 (stereo not drawn) | inconclusive: 34.9%
72 | C[C@H](CO)N1C[C@H](C)[C@@H](CN(C)Cc2ccc(-c3ccccc3)cc2)Oc2ccc(N(C)C)cc2C1=O | inconclusive: 24.6%
73 | CCC(=O)N1C[C@H](O)COC[C@H]2O[C@H](CC(=O)NCc3ccc(Oc4ccccc4)cc3)CC[C@@H]21 | inconclusive: 48.4%
